{"source": "patent US20110098339A1", "key": {"ANT2-Flag (human) [1]": {"target": "T1, ANT2-Flag (human) (UniProt P05141)", "T1 sequence": "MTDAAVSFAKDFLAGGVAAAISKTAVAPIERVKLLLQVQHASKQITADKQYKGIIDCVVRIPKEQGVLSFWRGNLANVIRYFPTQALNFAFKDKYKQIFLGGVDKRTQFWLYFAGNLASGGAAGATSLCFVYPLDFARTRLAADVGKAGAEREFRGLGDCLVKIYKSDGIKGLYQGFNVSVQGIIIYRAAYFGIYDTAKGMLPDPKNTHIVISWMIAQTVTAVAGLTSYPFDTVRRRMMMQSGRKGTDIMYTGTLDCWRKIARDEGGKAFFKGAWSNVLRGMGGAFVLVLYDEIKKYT", "test": "co-immunoprecipitation with anti-Flag antibody from co-transfected COS-7 lysate, western blot with anti-HA"}, "ANT2-Flag (human) [2]": {"target": "T1, ANT2-Flag (human)", "test": "co-immunoprecipitation with anti-Flag antibody from co-transfected COS7 lysate, western blot with anti-HA (FIG. 3C right)"}}, "note": "Results are given in words; binding and its absence hold for the method and conditions named. Binding seen in cells or lysates may run through a third protein. Some binding calls cover weakened binding; strength is not graded here. Tags and fused reporters may be left off the sequences shown."}
{"binder": "C2orf18-HA (protein, not shown: small tags and cut ends) SINTLSAKWADNFMAEGCGGSKEHSFQHPFLQAVGMFLGEFSCLAAFYLLRCRAAGQSDSSVDPQQPFNPLLFLPPALCDMTGTSLMYVALNMTSASSFQMLRGAVIIFTGLFSVAFLGRRLVLSQWLGILATIAGLVVVGLADLLSKHDSQHKLSEVITGDLLIIMAQIIVAIQMVLEEKFVYKHNVHPLRAVGTEGLFGFVILSLLLVPMYYIPAGSFSGNPRGTLEDALDAFCQVGQQPLIAVALLGNISSIAFFNFAGISVTKELSATTRMVLDSLRTVVIWALSLALGWEAFHALQILGFLILLIGTALYNGLHRPLLGRLSRGRPLAEESEQERLLGGTRTPINDAS", "values": [{"measurement": "binding", "setting": "ANT2-Flag (human) [1]", "result": "binds"}, {"measurement": "binding", "setting": "ANT2-Flag (human) [2]", "result": "binds"}]}
